Some of the results follow. Further columns of the screen follow, without active or inactive calls. The list favours compounds with an active or inconclusive main result. The note in brackets gives the kind of curve behind each potency; many fits are weak.
Experiment: qHTS Assay to Find Inhibitors of Chronic Active B-Cell Receptor Signaling
Settings: ABC-DLBCL IkBa-CBG/CBR reporter, luminescence ratio (green luciferase fused to IkBa over red control in TMD8 lymphoma cells), 4 h
How it was run: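 Doxycycline induced both beetle luciferases in TMD8 lymphoma cells; IKK-driven degradation limits the IkappaBalpha-fused green signal, while red luminescence normalises for cell number and nonspecific effects. Compounds tested up to 46 uM, 4 hrs.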

[1] = measured here: CBR red luminescence, cell number
[2] = measured here: IkBa-CBG green luminescence

SMILES	AC50 [1]	AC50 [2]
N#CC1=C2Sc3ccccc3N2CCCC1=O	12.6 µM [falling, partial curve]	–
Cc1nc(Nc2ccc(S(=O)(=O)N3CCCC3)cc2)c2nnn(Cc3ccccc3)c2n1	1.64 µM [falling, partial curve, poor fit]	–
CCCC(=O)N(Cc1cc(=O)[nH]c2ccccc12)c1ccccc1OC	20 µM [falling, partial curve, poor fit]	–
Cc1ccc2c(C)c(C(=O)N3CCN(C4CCS(=O)(=O)C4)CC3)oc2c1C (stereo not drawn)	35.5 µM [falling, single point]	–
CCN1/C(=C/C=C/c2sc3ccccc3[n+]2CC)Sc2ccccc21	23.1 µM [falling, single point]	–
O=C(COc1ccccc1)Nc1ccc2c(c1)C(=O)N(CC1CCCO1)C2=O (stereo not drawn)	35.5 µM [rising, partial curve, poor fit]	–
COC(=O)c1c(N2C(=O)[C@H]3[C@@H](C2=O)[C@]2(C(=O)Nc4c(C)cc(C)cc42)N2CCC[C@@H]32)sc(C)c1C	12.6 µM [falling, partial curve, poor fit]	–
CSCC[C@H](NC(=O)c1ccc(Cl)c([N+](=O)[O-])c1)c1nc2ccccc2[nH]1	10.3 µM [falling, partial curve, poor fit]	–
Cc1ccc2cccc(NS(=O)(=O)c3ccccc3)c2n1	2.82 µM [rising, partial curve, poor fit]	–
CC(NC(=O)c1ccccc1O)c1ccccc1 (stereo not drawn)	23.1 µM [rising, single point]	–
CC1(C)C(c2ccccc2)=NC(c2ccc(Br)cc2)N1O (stereo not drawn)	5.62 µM [rising, single point]	–
CCOC(=O)Cn1cc(Cl)cc(C(=O)Nc2ccccc2)c1=O	0.1 µM [rising, full curve, poor fit]	–
COc1ccc(CNc2ncnc3cc(Cl)ccc23)cc1	28.2 µM [falling, single point]	–
COc1cc2c(cc1OC)C(C)N(C(=O)c1sccc1C)CC2 (stereo not drawn)	3.55 µM [rising, single point]	–
COc1cc(C(=O)/C=C/c2cccnc2)c([N+](=O)[O-])cc1OC	9.2 µM [falling, partial curve, poor fit]	–
COc1cccc(NC(=O)c2cc3ccccc3oc2=O)c1	3.16 µM [falling, partial curve, poor fit]	–
O=C(COC(=O)Cc1cccs1)Nc1ccc(F)c(F)c1F	9.2 µM [rising, partial curve]	–
Nc1ccc(/C=C/C(=O)c2cccs2)cc1	12.6 µM [falling, partial curve, poor fit]	–
O=C(CN1C(=O)CSc2ccccc21)N/N=C/c1ccco1	17.8 µM [falling, single point]	–
C/C(=N\OCC(=O)Nc1ccccc1Br)c1cccs1	1.12 µM [rising, full curve, poor fit]	–
CC(NC(=O)Nn1cnnc1)(C(F)(F)F)C(F)(F)F	1.46 µM [rising, partial curve, poor fit]	–
CC(C)CCNc1nc(N)c([N+](=O)[O-])c(NCC2CCCO2)n1 (stereo not drawn)	6.51 µM [rising, partial curve]	–

SMILES	AC50 [1]	AC50 [2]
O=S1(=O)C=C(Sc2nnc(-c3ccccc3)o2)c2ccccc21	1 µM [falling, full curve]	–
O=S(=O)(Nc1cccc(-c2ccc(N3CCCCCC3)nn2)c1)c1ccc(C(F)(F)F)cc1	35.5 µM [rising, single point]	–
COc1cc(/C=N\Nc2cc(=O)n(C)c(=O)n2C)ccc1O	29.1 µM [rising, single point]	–
COc1ccc(NC2CCCN(C(=O)c3ccc(C(C)=O)s3)C2)cc1 (stereo not drawn)	20 µM [rising, single point]	–
Cc1nn(C)c(C)c1CNC(=O)Nc1cccc(Cl)c1	28.2 µM [rising, single point]	–
N#Cc1cc([N+](=O)[O-])ccc1Oc1cccc(/C=N/NC(=O)c2cccc(Cl)c2)c1	18.4 µM [rising, partial curve, poor fit]	–
Cc1cc(NCc2ccccc2Cl)n2nnnc2n1	23.1 µM [falling, single point]	–
CC(C)c1ccc(NC(=O)CSc2nc(-c3ccccc3F)nc3nc[nH]c23)cc1	20.6 µM [rising, single point]	–
Cc1[nH]c2ccccc2c1-c1csc(N)n1	22.4 µM [falling, partial curve, poor fit]	–
COc1ccc(NC(=O)CN(c2ccc(C)cc2)S(=O)(=O)c2c(C)nn(C)c2C)cc1	10 µM [falling, partial curve]	–
Cc1cccn2c(=O)c(C=C(C#N)C#N)c(N3CCN(c4cccc(Cl)c4)CC3)nc12	35.5 µM [rising, single point]	–
O=C(NC(=S)NCc1ccccc1)c1cccnc1	35.5 µM [rising, partial curve, poor fit]	–
CCCCNc1c(-c2ccc(OC)c(SC(C)CC)c2)nc2cc(C)ccn12 (stereo not drawn)	29.1 µM [falling, single point]	–
COc1ccc(N(CC(=O)Nc2cccc(C)c2)S(=O)(=O)c2c(C)n[nH]c2C)cc1	6.31 µM [falling, full curve, poor fit]	–
COc1cccc(OCc2cc(/C=N/Nc3ccc(C(=O)O)cc3)ccc2OC)c1	0.282 µM [falling, full curve]	–
CNC(=O)/C(C#N)=C/c1c(F)cccc1Cl	29.1 µM [falling, single point]	–
COc1ccc(S(=O)Cc2ccc(C(=O)NCc3cccc(OC)c3)o2)cc1 (stereo not drawn)	0.708 µM [falling, full curve, poor fit]	–
COc1ccccc1C1CC(c2ccccc2)=NN1C(=O)c1ccccc1 (stereo not drawn)	17.8 µM [falling, single point]	–
Cc1ccc2nc(NC(=O)COC(=O)c3ccc(Br)o3)sc2c1	25.1 µM [falling, single point]	31.6 µM [falling, single point]
CCOc1ccccc1C(=O)Nc1nnc(CC)s1	8.2 µM [falling, partial curve, poor fit]	–
CCOC(=O)c1cc2n(c1/N=C/N(C)C)-c1ccccc1C2=O	0.164 µM [rising, full curve, poor fit]	–
CCOc1ccc2c(c1)c(C(C)=O)c(C)n2-c1ccccc1	32.6 µM [rising, single point]	–

SMILES	AC50 [1]	AC50 [2]
CCc1ccc2c(c1)cc(C)c1nnc(SCC(=O)Nc3cc(OC)c(OC)cc3C(=O)O)n12	3.16 µM [falling, single point]	–
CN1CCN(c2nc(-c3ccc(Br)cc3)nnc2-c2ccccc2)CC1	1.58 µM [falling, full curve]	–
O=C(c1ccc(Oc2ccc(C(F)(F)F)cn2)cc1)N1CCN(c2ccccc2)CC1	17.8 µM [falling, single point]	–
COc1ccc(N2C(=S)NC3c4cc(Cl)ccc4OC2(C)C3C(=O)N(C)C)cc1 (stereo not drawn)	35.5 µM [falling, single point]	–
OC1CCN(c2c3c(nc4cc(-c5cccc(F)c5)nn24)CCCC3)CC1	9.2 µM [falling, partial curve, poor fit]	–
CCc1nnc(SCC(=O)NC2CCCCC2)nc1CC	0.58 µM [falling, partial curve, poor fit]	–
Fc1ccc2nc(N3CCCCC3)sc2c1	15.8 µM [rising, single point]	–
CC1CCCN(C(=O)COC(=O)COc2ccc(C#N)cc2)C1 (stereo not drawn)	5.17 µM [rising, single point]	–
COC(=O)CCCCCc1ccc(C(C)=O)s1	0.082 µM [rising, full curve, poor fit]	–
Cc1ccccc1-n1nnnc1-c1ccccc1	12.6 µM [rising, partial curve, poor fit]	–
COc1ccc(-c2nn(-c3ccccc3)cc2/C=N/Nc2ccccn2)cc1OC	1.64 µM [falling, full curve]	–
Nc1nc(-c2ccccc2)c(N=Nc2ccccc2Cl)s1	29.1 µM [rising, single point]	–
O=C(N/N=C/c1ccc(N2CCOCC2)s1)c1ccccc1Cl	12.6 µM [falling, partial curve, poor fit]	–
C#Cc1ccc([C@H]2C=C(C(=O)Nc3ccccc3)O[C@@H](OCc3ccc(CO)cc3)C2)cc1	2.24 µM [rising, single point]	–
CCN(CC)c1ccc(/C=C(/C#N)C(=O)NCc2ccccc2)o1	0.58 µM [rising, full curve, poor fit]	–
O=C(Nc1ccc([N+](=O)[O-])cn1)c1ccc(Br)o1	23.1 µM [falling, single point]	–
C=C(C)CSc1nc(N)c2c3c(sc2n1)CCC3	0.708 µM [rising, partial curve, poor fit]	–
Nc1nc(Cl)c(C=O)c(N2CCCCC2)n1	20 µM [falling, single point]	12.6 µM [rising, partial curve, poor fit]
O=C(O)CCC(=O)Nc1ccc(N=Nc2ccccc2)cc1	20 µM [falling, single point]	–
C/C(=N\NC(=O)c1cccs1)C(C)(C)C	18.4 µM [falling, partial curve]	25.9 µM [falling, single point]
CCOc1ccccc1N1CCN(S(=O)(=O)c2cccc3nsnc23)CC1	1.46 µM [falling, full curve, poor fit]	–

In another format: results already given.
COC(=O)CCCCCc1ccc(C(C)=O)s1
  AC50 [1]: 0.082 µM [rising, full curve, poor fit]
Cc1ccccc1-n1nnnc1-c1ccccc1
  AC50 [1]: 12.6 µM [rising, partial curve, poor fit]
COc1ccc(-c2nn(-c3ccccc3)cc2/C=N/Nc2ccccn2)cc1OC
  AC50 [1]: 1.64 µM [falling, full curve]
Nc1nc(-c2ccccc2)c(N=Nc2ccccc2Cl)s1
  AC50 [1]: 29.1 µM [rising, single point]
